PubChem BioAssay AID743121 | NCATS, 2013

Aim: 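Knock-downs that sensitise breast cancer cells to camptothecin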 (primary screen)
System: MDA-MB-231 cells, a human breast cancer line
Knock-down reagent: single siRNA against human genes, 20 nM siRNA (0.8 pmol per well)
Duration: 120 h (drug added 48 h after transfection, read 72 h later)
Treatment: camptothecin 20 nM (about EC30) for 72 h; vehicle 0.1% DMSO in parallel plates
Detection: 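CellTiter-Glo ATP signal, scaled to control siRNA as percent viability; sensitisation given as log2 of untreated divided by camptothecin-treated viability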
Scale: log2 vehicle/camptothecin viability: higher = stronger sensitisation to camptothecin; viability with camptothecin: higher = more viable cells
Units: viability with camptothecin in % of control
Active means: 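Each gene scored by redundant siRNA activity (RSA) over its individual siRNA ratios; a gene is called active at p < 0.001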
The deposit covers about 26,000 reagents; shown is a part drawn at random. Of all reagents, 167 (0.63%) got an active call. 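Calls are per gene from RSA p-values that are not deposited; an individual active-marked siRNA can sensitise only weakly.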 Reagents against one gene are numbered here. Further read-outs or replicates are left out here.

With knock-down of SACM1L (GeneID 22908) #1, the screen gave log2 vehicle/camptothecin viability 0.0644; viability with camptothecin 105; inactive.
After knock-down of SACM1L (GeneID 22908) #2, the screen gave log2 vehicle/camptothecin viability -0.0609; viability with camptothecin 90.6; inactive.
For SACM1L (GeneID 22908) #3, the values are log2 vehicle/camptothecin viability -0.196; viability with camptothecin 75.6; inactive.
After knock-down of SACM1L (GeneID 22908) #4 the results were log2 vehicle/camptothecin viability -0.134; viability with camptothecin 85.3; inactive.
For CTTN (GeneID 2017) #1, the values are log2 vehicle/camptothecin viability 0.0114; viability with camptothecin 81; inactive.
CTTN (GeneID 2017) #2 gave log2 vehicle/camptothecin viability -0.416; viability with camptothecin 45.2; inactive.
CTTN (GeneID 2017) #3 showed log2 vehicle/camptothecin viability 0.00474; viability with camptothecin 85.7; inactive.
Silencing of CTTN (GeneID 2017) #4 resulted in: log2 vehicle/camptothecin viability 0.0657; viability with camptothecin 65.6; inactive.
For ABI3BP (GeneID 25890) #1, the entry reads log2 vehicle/camptothecin viability -0.0014; viability with camptothecin 72.8; inactive.
Against ABI3BP (GeneID 25890) #2 the deposit lists log2 vehicle/camptothecin viability 0.311; viability with camptothecin 12.7; inactive.
ABI3BP (GeneID 25890) #3 showed log2 vehicle/camptothecin viability -0.703; viability with camptothecin 93.6; inactive.
Knock-down of ABI3BP (GeneID 25890) #4 gave: log2 vehicle/camptothecin viability -0.0617; viability with camptothecin 104; inactive.
Knock-down of ASIC4 (GeneID 55515) #1 resulted in: log2 vehicle/camptothecin viability -0.329; viability with camptothecin 75.8; inactive.
After knock-down of ASIC4 (GeneID 55515) #2, the screen gave log2 vehicle/camptothecin viability -0.632; viability with camptothecin 91.9; inactive.
Against ASIC4 (GeneID 55515) #3, the values are log2 vehicle/camptothecin viability -0.152; viability with camptothecin 55.5; inactive.

Targets listed so far whose gene name begins with C or c (4):
CTTN (GeneID 2017) #1 → log2 vehicle/camptothecin viability: 0.0114; viability with camptothecin: 81; activity call: inactive
CTTN (GeneID 2017) #2 → log2 vehicle/camptothecin viability: -0.416; viability with camptothecin: 45.2; activity call: inactive
CTTN (GeneID 2017) #3 → log2 vehicle/camptothecin viability: 0.00474; viability with camptothecin: 85.7; activity call: inactive
CTTN (GeneID 2017) #4 → log2 vehicle/camptothecin viability: 0.0657; viability with camptothecin: 65.6; activity call: inactive
